PubChem BioAssay AID624297 (National Center for Advancing Translational Sciences (NCATS), 2012)
In all, about 340,000 compounds went through this assay and about 6,200 (1.8%) were called active. The shares of active, inactive and inconclusive entries below differ from those in the screen. The call rests on the fitted dose curve; in most records, active means well fitted activation curve with a large enough effect; inconclusive means small, poorly fitted or top-dose-only effect; inactive means no such curve, though single readings can be large or run the other way. Where the call is inconclusive, the potency comes from a doubtful curve fit.

experiment: A quantitative high throughput screen for small molecules that induce DNA re-replication in SW480 colon adenocarcinoma cells.; further: nearly all actives have a fitted effect of over 55% in size; on re-replication activation: % of control where 0% means no effect; conditions: Hoechst DNA content imaging, 48 h; re-replication activation: at 46.1 µM (top of the series) unless noted
Outline: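 Treated cells incubate 48 hr (37 C, 5% CO2), are stained 40 min with Hoechst, and nuclear fluorescence is enumerated; a rise in nuclei with high DNA signal marks re-replication.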
Potency means the concentration at half of the fitted maximal effect.

Structure (SMILES) | Potency | re-replication activation
Cn1c(=O)n(C)c2cc(NS(=O)(=O)c3ccc(C(C)(C)C)cc3)ccc21 | inactive | –
COc1ccc(-c2csc3ncnc(N4CCN(c5ccccc5Cl)CC4)c23)cc1 | inconclusive: 18.4 µM [activator, single point] | –
O=C(CCN1C(=O)c2ccccc2C1=O)NCc1ccccc1 | inconclusive: 25.9 µM [activator, partial curve, poor fit] | –
COc1ccccc1NC(=O)c1ccc(NC(=O)CN(C)Cc2ccccc2F)cc1 | inconclusive: 23.1 µM [activator, partial curve, poor fit] | –
CC(C)N=c1cc2n(-c3ccc(Cl)cc3)c3ccccc3nc-2cc1Nc1ccc(Cl)cc1 | inconclusive: 1.26 µM [activator, partial curve, poor fit] | –
Cc1cccc(NC(=O)c2cnn(-c3ccccc3)c2C)c1C | inactive | –
COc1ccc(OC)c(/C=C2\SC(N3CCCC(C)C3)=NC2=O)c1 (centres undefined) | inactive | –
COc1ccnc(Oc2ccc(F)cc2)c1C(=O)N/C=N/OCc1ccc(F)cc1Cl | inconclusive: 18.4 µM [activator, single point] | –
Cc1cc2nc3n(c2cc1C)CC1CC(C(=O)NCc2cccc(Br)c2)N(C)C31 (centres undefined) | inconclusive: 23.1 µM [activator, single point] | –
CCc1nc(Nc2ccccc2OC)c2oc3ccccc3c2n1 | inconclusive: 20.6 µM [activator, partial curve, poor fit] | –
O=C(NC1CCCCCCC1)c1ccc(F)cc1 | inactive | –
O=c1c2cc(Br)ccc2nc(-c2ccccc2)n1O | inactive | –
Cc1ccc(S(=O)(=O)c2cccc(S(=O)(=O)N3CCOCC3)c2)cc1S(=O)(=O)N1CCOCC1 | inactive | –
CCOC(=O)C(CCCCCOc1ccc([N+](=O)[O-])cc1)C(=O)OCC | inactive | –
O=[N+]([O-])c1cc(-c2cccnc2)n[nH]1 | inactive | –
Cc1ccc(C(=O)NCc2ccncc2)cc1S(=O)(=O)Nc1cccc(C)c1C | inconclusive: 5.8 µM [activator, partial curve, poor fit] | –
O=C(CNS(=O)(=O)c1cccc(Br)c1)NCCCc1ccccc1 | inconclusive: 18.4 µM [activator, single point] | –
COc1ccc(NS(=O)(=O)c2cc(N/C(=N\S(=O)(=O)c3ccccc3)c3ccc(F)cc3)ccc2Cl)cc1 | inconclusive: 18.4 µM [activator, single point] | –
O=c1[nH]c(Cc2cccc(C(F)(F)F)c2)nc2ccccc12 | – | inconclusive: 27.8% [activator]
CCCCCC1=C(C(=O)OC)C(C(=O)OCC)N(S(=O)(=O)C(F)(F)F)c2ccccc21 (centres undefined) | inconclusive: 29.1 µM [activator, single point] | –
CCc1ccc(/C=C/c2c([N+](=O)[O-])c(=O)n(C)c(=O)n2C)cc1 | inconclusive: 29.1 µM [activator, single point] | –
COc1ccc(OC)c(NC(=O)c2nc(S(=O)(=O)Cc3ccccc3)ncc2Cl)c1 | inconclusive: 20.6 µM [activator, partial curve, poor fit] | –
COc1ccc(C(=O)NC2CCSC2=O)cc1 (centres undefined) | inconclusive: 5.8 µM [activator, single point] | –

Structure (SMILES) | Potency | re-replication activation
CCOCCCNC1=C(Cl)C(=O)c2ccccc2C1=O | inconclusive: 20.6 µM [activator, partial curve, poor fit] | –
COc1ccc2c(O)c(-c3c(C)cc(C)cc3C)c(=O)[nH]c2c1 | inconclusive: 16.4 µM [activator, single point] | –
CC1(C)CCC(=NNC(N)=S)CC1 | inconclusive: 20.6 µM [activator, single point] | –
CCOc1ccc(C)cc1S(=O)(=O)n1cnc2ccccc21 | inconclusive: 29.1 µM [activator, single point] | –
Cc1ccc(OCC(=O)N2CCN(C(=O)Cc3ccccc3)CC2)cc1 | inconclusive: 2.59 µM [activator, partial curve] | –
CN1C(=O)C(O)(CC(=O)c2ccccc2O)c2cc(Br)ccc21 (centres undefined) | inconclusive: 23.1 µM [activator, single point] | –
COc1cc(/C=N/NC(=O)c2cccc(N3CCCC3=O)c2)ccc1O | inconclusive: 0.103 µM [activator, full curve, poor fit] | –
Cc1ccccc1NC(=S)NCCc1ccccn1 | inconclusive: 23.1 µM [activator, single point] | –
Cc1cccc(Oc2ccc3c(c2)cc(C(=O)O)n3C)c1 | inconclusive: 29.1 µM [activator, partial curve, poor fit] | –
COc1ccc(-c2cn(-c3ccc(Br)cc3)c3[n+]2CCS3)cc1 | inactive | –
CCOC(=O)C1=C(C)NC(C)=C(C(=O)OCC)C1c1cccs1 | inactive | –
CC12CCC(C(=O)O)(c3nc(C#N)c(C#N)nc31)C2(C)C (centres undefined) | inconclusive: 29.1 µM [activator, single point] | –
CN(c1ccccc1)S(=O)(=O)c1nnc(NC(=O)c2ccco2)s1 | inactive | –
COc1cc(C2c3c(-c4ccccc4O)n[nH]c3C(=O)N2Cc2ccco2)cc(OC)c1OC (centres undefined) | inactive | –
Cc1c(C(=O)N2CCN(c3ccc([N+](=O)[O-])cc3)CC2)oc2ccccc12 | inconclusive: 1.84 µM [activator, partial curve, poor fit] | –
Cn1nc(OCC(=O)O)cc1C(F)(F)F | inactive | –
Fc1ccccc1NC(=S)N1CCN(C/C=C/c2ccccc2)CC1 | inactive | –
COc1cc2c(c(OC)c1OC)-c1ccc(SC)c(=O)cc1C(NC(=O)c1ccccc1)CC2 (centres undefined) | active: 0.0146 µM | –
O=C(Nc1ccc(-n2cccn2)cc1)C1CCCCN1Cc1cccc2cccnc12 (centres undefined) | inconclusive: 20.6 µM [activator, partial curve, poor fit] | –
CCC(C)/C=C/C1=CC2=C(Cl)C(=O)C3(C)OC(=O)C(C(=O)C(C)C(C)O)C3C2=CO1 (centres undefined) | inactive | –
CC(OC(=O)Cn1cnc2c1c(=O)n(C)c(=O)n2C)C(=O)NC(C)c1ccc(Cl)cc1Cl (centres undefined) | inactive | –
COC(=O)C1CC23C=CCN4CCC5(c6ccccc6NC15C2C)C43 (centres undefined) | active: 0.92 µM | –
COc1c(Cl)cc(C(=O)O)cc1Cl | inactive | –

Structure (SMILES) | Potency | re-replication activation
COc1ccc(C2=NOC(C(=O)N3CCOCC3)C2)cc1OC (centres undefined) | inactive | –
COc1cc(OC)c2c(-c3cccc(-c4cccc(C)c4)c3)cc(=O)oc2c1 | inconclusive: 3.26 µM [activator, full curve] | –
COc1ccc(C2CC(=O)N3CN(c4ccc(C)c(Cl)c4)CSC3=C2C#N)cc1OC (centres undefined) | inconclusive: 16.4 µM [activator, partial curve, poor fit] | –
Cc1cc(C)c(S(=O)(=O)NCC(c2cccnc2)N2CCN(Cc3ccccc3)CC2)c(C)c1 (centres undefined) | inactive | –
O=C(c1cccc(C(F)(F)F)c1)c1c[nH]c(C(=O)NCC2CCCO2)c1 (centres undefined) | inactive | –
O=C(COc1ccccc1Cl)NNC(=O)c1ccc(-n2cncn2)c([N+](=O)[O-])c1 | inconclusive: 29.1 µM [activator, single point] | –
CCc1ccc(NC(=O)c2cnc(N3CCN(c4ccccn4)CC3)c3ccccc23)cc1 | inconclusive: 29.1 µM [activator, single point] | –
COc1ccc(C)cc1NC(=O)CNCc1cccs1 | inconclusive: 0.82 µM [activator, full curve, poor fit] | –
Cc1[nH]n(-c2ccccc2)c(=O)c1/C=N/NC(=O)c1ccc(O)cc1O | inconclusive: 23.1 µM [activator, single point] | –
CC(=O)OC1(C(C)=O)CCC2C3CC(Cl)C4=CC(=O)CCC4(C)C3CCC21C (centres undefined) | inconclusive: 23.1 µM [activator, single point] | –
COc1ccc(-c2cc(C)no2)cc1S(=O)(=O)N1CC(=O)Nc2ccccc21 | inconclusive: 4.11 µM [activator, single point] | –
N#CC(C#N)=CC1=C2OC(c3ccccc3)=CC(c3ccccc3)=C2CCC1 | inconclusive: 3.26 µM [activator, full curve, poor fit] | –
CCOc1ccc(Br)cc1C1=CC(=O)C[C@H](c2ccc(OC)cc2)C1 | active: 7.31 µM | –
CCCCN(CC)C(=S)Nc1ccc2nc(N3CCN(C)CC3)cc(C)c2c1 | inconclusive: 18.4 µM [activator, single point] | –
CCCc1ncc(CN2CCCC(C(=O)Nc3ccc(-c4cccc(OC)c4)cc3)C2)cn1 (centres undefined) | inconclusive: 0.0041 µM [activator, full curve, poor fit] | –
COc1ccc2sc(-c3ccc(N(C)C)cc3)c(-c3ccc4cc[nH]c4c3)c2c1 | inconclusive: 23.1 µM [activator, partial curve, poor fit] | –
COc1cc2c(cc1OC)C(=S)NC(C)(C)C2 | inconclusive: 29.1 µM [activator, single point] | –
O=c1[nH]c(CSc2ncc(C(F)(F)F)cc2Cl)nc2ccccc12 | inconclusive: 8.2 µM [activator, partial curve, poor fit] | –
CCOc1ccc(-n2cnc3sc(C)c(C)c3c2=O)cc1 | inactive | –
O=C(NNC(=O)C1COc2ccccc2O1)c1ccccc1O (centres undefined) | inconclusive: 23.1 µM [activator, partial curve, poor fit] | –
CC(=O)OCC(=O)C1(O)CCC2C3CCC4=CC(=O)C=CC4(C)C3C(O)CC21C (centres undefined) | inconclusive: 6.51 µM [activator, partial curve, poor fit] | –
CC1=CC(=O)C=C(C)C1=NOc1ccccc1[N+](=O)[O-] | inactive | –
O=S(=O)(/N=S1/CC=CCN1S(=O)(=O)c1ccccc1)c1ccccc1 (centres undefined) | inconclusive: 29.1 µM [activator, single point] | –
